According to patent US20060117402A1:

Biological target: nuclear lamin bait
Experiment: yeast two-hybrid, LEU2 reporter growth on SC-Leu

B1: Group 2 positive clone (clone 20), two-hybrid library clone encoding the arm repeat protein ARIA (At5g19330) (protein, not shown: large carriers)
chain: ERREGRSFPERKGQKRKLEEGAAAVEDREISAVSTDGGQALLSEVAAQVSVLNSAFSWQESDRAAAKRATQVLAELAKNEDLVNVIVDGGAVPALMTHLQAPPYNDGDLAEKPYEHEVEKGSAFALGLLAIKPEYQKLIVDKGALPHLVNLLKRNKDGSSSRAVNSVIRRAADAITNLAHENSSIKTRVRVEGGIPPLVELLEFSDSKVQRAAAGALRTLAFKNDDNKNQIVECNALPTLILMLGSEDAAIHYEAVGVIGNLVHSSPHIKKEVLTAGALQPVIGLLSSCCPESQREAALLLGQFASTDSDCKVHIVQRGAVRPLIEMLQSPDVQLKEMSAFALGRLAQDAHNQAGIAHSGGLGPLLKLLDSRNGSLQHNAAFALYGLADNEDNVSDFIRVGGIQKLQDGEFIVQATKDCVSKTLKRLEEKIHGRVLRHLLYLMRISEKSIQRRVALALAHLCSPEDQRTIFIDDNGLELLLGLLGSLNTKQQLDGAAALYKLANKSMALSPVDAAPPSPTQRVYLGEQYVNNATLSDVTFLVEGRTFYAHRICLLASSDAFRAMFDGGYREKDARDIEIPNIKWEVFELMMRFIYTGSVDITNEISKDLLRAADQYLLEGLKRLCEYTIAQDITLESIGDMYELSEAFHAMSLRQACIMFILEHFDKLSSMPWQNELVQRTIPEIREYFCRALTKSTTNLQSLRL
binding: no binding

No constants are given. Whether binding was seen depends on the method and setting.
